Reference: article PMC5996148
Several values for one entry are separate records, joined by “and”; a condition that tells them apart may be missing. Equal values may be shown once. This is one part of the list. For some assays here: The source does not settle which construct or isoform was used.

Sequences of proteins named here, by UniProt entry; tags and fusion partners are left off. A change or cut given only in a name is not applied to a line headed by its entry.
UniProt Q8NC51: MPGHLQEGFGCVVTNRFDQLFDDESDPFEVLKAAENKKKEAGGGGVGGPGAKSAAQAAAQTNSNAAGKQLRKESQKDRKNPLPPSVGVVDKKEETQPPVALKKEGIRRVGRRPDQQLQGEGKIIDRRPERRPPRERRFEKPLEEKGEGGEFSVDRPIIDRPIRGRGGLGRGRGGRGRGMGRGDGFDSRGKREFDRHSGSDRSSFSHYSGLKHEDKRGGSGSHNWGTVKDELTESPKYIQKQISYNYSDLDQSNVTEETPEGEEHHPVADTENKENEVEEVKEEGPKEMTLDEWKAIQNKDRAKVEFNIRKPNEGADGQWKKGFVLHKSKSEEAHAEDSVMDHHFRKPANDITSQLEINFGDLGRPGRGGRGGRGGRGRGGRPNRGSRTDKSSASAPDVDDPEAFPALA
UniProt P08185: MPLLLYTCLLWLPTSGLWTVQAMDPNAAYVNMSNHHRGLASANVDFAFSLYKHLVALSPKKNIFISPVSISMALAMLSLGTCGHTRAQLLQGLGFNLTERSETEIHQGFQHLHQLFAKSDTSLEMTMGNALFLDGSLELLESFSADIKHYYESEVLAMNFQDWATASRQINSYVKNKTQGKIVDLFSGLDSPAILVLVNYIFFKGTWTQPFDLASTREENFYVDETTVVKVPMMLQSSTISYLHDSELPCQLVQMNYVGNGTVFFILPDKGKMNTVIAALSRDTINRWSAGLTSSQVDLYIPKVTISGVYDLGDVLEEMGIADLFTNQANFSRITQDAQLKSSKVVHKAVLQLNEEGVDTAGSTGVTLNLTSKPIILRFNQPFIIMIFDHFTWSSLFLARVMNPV

Assays:
Assay in all cases: protein microarray (ProtoArray v5.0), streptavidin-Alexa Fluor 647
Conditions in all cases: 3'-biotin; 20 mM Tris (pH 7.5), 5 mM MgCl2, 100 mM KCl, 0.1% Tween-20, A/T-rich and random oligonucleotide blockers; temperature not stated; high values mean tight binding
SEC13L1 (human) = tested on: SEC13L1 (human)
SELPLG (human) = tested on: SELPLG (human)
SENP8 (human) = tested on: SENP8 (human)
SEPHS2 (human) = tested on: SEPHS2 (human)
SEPP1 (human) = tested on: SEPP1 (human)
SEPT11 (human) = tested on: SEPT11 (human)
SEPT4 (human) = tested on: SEPT4 (human)
SEPT6 (human) = tested on: SEPT6 (human)
SEPT9 (human) = tested on: SEPT9 (human)
SERBP1 = SERBP1 (UniProt Q8NC51)
SERF1A (human) = tested on: SERF1A (human)
SERPINA6 = SERPINA6 (UniProt P08185)
SERPINA6 (human) = tested on: SERPINA6 (human)
SERPINA7 (human) = tested on: SERPINA7 (human)
SERPINB1 (human) = tested on: SERPINB1 (human)
SERPINB2 (human) = tested on: SERPINB2 (human)
SERPINB6 (human) = tested on: SERPINB6 (human)
SERPINB7 (human) = tested on: SERPINB7 (human)
SERPINB9 (human) = tested on: SERPINB9 (human)
SERPINF1 = biological target: T1, SERPINF1 (UniProt P36955)
T1 sequence: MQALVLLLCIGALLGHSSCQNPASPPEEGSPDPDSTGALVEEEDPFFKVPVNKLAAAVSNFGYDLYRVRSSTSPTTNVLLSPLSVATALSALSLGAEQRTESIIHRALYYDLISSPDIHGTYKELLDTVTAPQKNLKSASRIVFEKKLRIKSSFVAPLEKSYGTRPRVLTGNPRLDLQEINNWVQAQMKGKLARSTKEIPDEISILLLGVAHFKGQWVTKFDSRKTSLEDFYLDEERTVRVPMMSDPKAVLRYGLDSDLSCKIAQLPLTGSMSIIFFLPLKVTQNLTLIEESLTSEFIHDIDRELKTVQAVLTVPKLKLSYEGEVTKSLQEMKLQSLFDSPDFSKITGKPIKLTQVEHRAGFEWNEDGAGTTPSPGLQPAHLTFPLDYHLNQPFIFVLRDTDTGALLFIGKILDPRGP

Q: For “GGTGACAGGGGTATGGGGAGGGG [G4-2 biotinylated (Ct1)]”, which binding signal (SEC13L1 (human)) is on record?
A: -0.39 z-score

Q: And the binding signal (SELPLG (human))?
A: -0.383 z-score

Q: What about the binding signal (SENP8 (human)) of the same sequence?
A: -0.406 z-score

Q: What about the binding signal (SEPHS2 (human)) of the same sequence?
A: -0.4 z-score

Q: What about the binding signal (SEPP1 (human)) of the same sequence?
A: -0.373 z-score

Q: What about the binding signal (SEPT11 (human)) of the same sequence?
A: -0.398 z-score

Q: What about the binding signal (SEPT4 (human)) of the same sequence?
A: -0.37 z-score

Q: And the binding signal (SEPT6 (human))?
A: -0.368 z-score and -0.384 z-score

Q: And the binding signal (SEPT9 (human))?
A: -0.376 z-score

Q: And the binding signal (SERBP1)?
A: 4.58 z-score and 5.11 z-score

Q: And the binding signal (SERF1A (human))?
A: 4.23 z-score

Q: What about the binding signal (SERPINA6) of the same sequence?
A: -0.365 z-score

Q: What about the binding signal (SERPINA6 (human)) of the same sequence?
A: -0.391 z-score

Q: What about the binding signal (SERPINA7 (human)) of the same sequence?
A: -0.389 z-score

Q: And the binding signal (SERPINB1 (human))?
A: -0.395 z-score

Q: What about the binding signal (SERPINB2 (human)) of the same sequence?
A: -0.38 z-score

Q: What about the binding signal (SERPINB6 (human)) of the same sequence?
A: -0.365 z-score

Q: What about the binding signal (SERPINB7 (human)) of the same sequence?
A: -0.366 z-score

Q: What about the binding signal (SERPINB9 (human)) of the same sequence?
A: -0.357 z-score

Q: And the binding signal (SERPINF1)?
A: 5.71 z-score
